Results are given in words; binding and its absence hold for the method and conditions named. Binding seen in cells or lysates may run through a third protein. Some entries that bind do so weakly or less than the wild type.
Key:
[1] = biological target: Focal Adhesion Kinase (FLAG/hFAK) (human) (UniProt Q05397); assay: co-IP
[2] = biological target: phosphodiesterase 8A (V5/hPDE8A) (human) (UniProt O60658); assay: co-IP

Protein sequences, listed by entry. Tags and fused reporters are not part of them.
UniProt Q05397: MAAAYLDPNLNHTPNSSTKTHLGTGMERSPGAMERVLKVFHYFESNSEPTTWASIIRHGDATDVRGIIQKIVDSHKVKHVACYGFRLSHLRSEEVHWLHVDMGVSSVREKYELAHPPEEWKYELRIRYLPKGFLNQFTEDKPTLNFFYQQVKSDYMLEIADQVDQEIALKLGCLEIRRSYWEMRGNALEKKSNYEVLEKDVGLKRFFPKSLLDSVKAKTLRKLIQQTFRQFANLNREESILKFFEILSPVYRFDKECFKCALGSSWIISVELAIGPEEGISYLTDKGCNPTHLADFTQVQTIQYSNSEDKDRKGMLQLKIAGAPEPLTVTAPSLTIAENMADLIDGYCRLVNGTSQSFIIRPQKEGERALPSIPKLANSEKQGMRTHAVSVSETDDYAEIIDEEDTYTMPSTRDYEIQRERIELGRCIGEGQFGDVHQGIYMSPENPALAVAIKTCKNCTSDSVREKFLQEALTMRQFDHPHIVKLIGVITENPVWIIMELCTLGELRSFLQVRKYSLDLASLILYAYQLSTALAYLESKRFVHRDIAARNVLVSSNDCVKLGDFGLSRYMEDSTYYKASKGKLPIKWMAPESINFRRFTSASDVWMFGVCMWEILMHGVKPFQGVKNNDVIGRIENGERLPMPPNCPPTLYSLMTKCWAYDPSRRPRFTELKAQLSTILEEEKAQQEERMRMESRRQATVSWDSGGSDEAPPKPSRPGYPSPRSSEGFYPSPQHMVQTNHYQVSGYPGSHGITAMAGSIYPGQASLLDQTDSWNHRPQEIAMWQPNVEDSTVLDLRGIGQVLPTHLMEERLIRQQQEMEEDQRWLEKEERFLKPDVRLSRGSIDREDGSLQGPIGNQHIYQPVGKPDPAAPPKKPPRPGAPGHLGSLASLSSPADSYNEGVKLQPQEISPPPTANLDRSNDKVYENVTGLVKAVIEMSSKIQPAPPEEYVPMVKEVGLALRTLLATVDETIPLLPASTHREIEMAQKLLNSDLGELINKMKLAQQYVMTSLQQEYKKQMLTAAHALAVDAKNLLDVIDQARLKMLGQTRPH
UniProt O60658: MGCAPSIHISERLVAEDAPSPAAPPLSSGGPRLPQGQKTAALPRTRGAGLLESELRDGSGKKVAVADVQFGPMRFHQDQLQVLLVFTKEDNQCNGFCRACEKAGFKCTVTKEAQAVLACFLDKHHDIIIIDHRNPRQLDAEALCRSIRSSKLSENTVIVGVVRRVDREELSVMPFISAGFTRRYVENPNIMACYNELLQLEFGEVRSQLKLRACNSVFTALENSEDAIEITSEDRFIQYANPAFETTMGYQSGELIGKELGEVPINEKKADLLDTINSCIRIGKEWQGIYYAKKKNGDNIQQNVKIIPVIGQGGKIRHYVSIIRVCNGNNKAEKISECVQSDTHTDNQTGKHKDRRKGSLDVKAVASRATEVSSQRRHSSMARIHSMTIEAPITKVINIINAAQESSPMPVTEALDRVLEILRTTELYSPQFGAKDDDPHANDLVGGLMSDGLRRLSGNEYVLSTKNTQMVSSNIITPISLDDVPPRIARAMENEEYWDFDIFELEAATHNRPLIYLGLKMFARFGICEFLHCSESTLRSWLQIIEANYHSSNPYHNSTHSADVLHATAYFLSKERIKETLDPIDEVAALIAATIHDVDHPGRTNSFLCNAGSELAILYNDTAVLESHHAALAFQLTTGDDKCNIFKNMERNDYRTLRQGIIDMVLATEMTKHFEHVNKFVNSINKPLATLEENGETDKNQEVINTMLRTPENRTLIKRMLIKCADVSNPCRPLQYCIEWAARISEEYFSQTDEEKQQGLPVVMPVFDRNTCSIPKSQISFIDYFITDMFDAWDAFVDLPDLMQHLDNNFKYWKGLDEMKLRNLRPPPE

Row | Substance | binding [1] | binding [2]
1 | phosphodiesterase 8A (V5/hPDE8A) (from UniProt O60658 1-829) (enzyme) | binds | –
2 | Focal Adhesion Kinase (FLAG/hFAK) (from UniProt Q05397 1-1052) (enzyme) | – | binds

— paper doi:10.1101/2024.06.28.601153
